Our source for the binding values is patent US6576442 (SUGEN, dated 2003).

Protein sequences, listed by entry. Tags and fused reporters are not part of them.
UniProt Q14289: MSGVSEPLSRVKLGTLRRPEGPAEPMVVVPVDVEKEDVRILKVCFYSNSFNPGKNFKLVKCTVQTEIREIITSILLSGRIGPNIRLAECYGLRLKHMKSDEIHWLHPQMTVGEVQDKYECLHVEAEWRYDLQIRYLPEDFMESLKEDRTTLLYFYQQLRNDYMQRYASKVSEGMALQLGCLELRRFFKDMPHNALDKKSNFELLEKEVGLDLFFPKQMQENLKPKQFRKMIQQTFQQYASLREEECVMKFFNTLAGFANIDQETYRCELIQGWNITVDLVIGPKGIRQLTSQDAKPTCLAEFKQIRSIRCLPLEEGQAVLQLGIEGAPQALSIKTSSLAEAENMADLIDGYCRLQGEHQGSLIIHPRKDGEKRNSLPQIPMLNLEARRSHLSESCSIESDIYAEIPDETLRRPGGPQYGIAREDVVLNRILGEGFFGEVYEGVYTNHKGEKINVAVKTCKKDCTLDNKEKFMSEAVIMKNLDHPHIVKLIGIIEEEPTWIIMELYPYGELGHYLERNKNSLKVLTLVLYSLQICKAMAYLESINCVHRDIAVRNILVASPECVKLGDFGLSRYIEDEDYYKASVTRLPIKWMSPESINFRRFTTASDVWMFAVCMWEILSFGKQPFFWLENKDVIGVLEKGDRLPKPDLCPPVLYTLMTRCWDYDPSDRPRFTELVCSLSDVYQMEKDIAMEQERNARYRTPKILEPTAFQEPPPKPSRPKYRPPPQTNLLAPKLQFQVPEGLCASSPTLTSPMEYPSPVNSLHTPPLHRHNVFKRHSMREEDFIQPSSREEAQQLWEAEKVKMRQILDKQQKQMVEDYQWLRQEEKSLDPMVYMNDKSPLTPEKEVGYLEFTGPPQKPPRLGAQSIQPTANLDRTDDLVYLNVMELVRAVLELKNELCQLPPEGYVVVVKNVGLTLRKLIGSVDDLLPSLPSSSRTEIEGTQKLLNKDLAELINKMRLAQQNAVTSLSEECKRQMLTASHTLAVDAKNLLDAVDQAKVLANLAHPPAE

For test [1], the target named is T1, GST-fusion protein containing the same portion of hrdgB1 (amino acids 627-936) (human) (UniProt Q9BZ71).
T1 sequence: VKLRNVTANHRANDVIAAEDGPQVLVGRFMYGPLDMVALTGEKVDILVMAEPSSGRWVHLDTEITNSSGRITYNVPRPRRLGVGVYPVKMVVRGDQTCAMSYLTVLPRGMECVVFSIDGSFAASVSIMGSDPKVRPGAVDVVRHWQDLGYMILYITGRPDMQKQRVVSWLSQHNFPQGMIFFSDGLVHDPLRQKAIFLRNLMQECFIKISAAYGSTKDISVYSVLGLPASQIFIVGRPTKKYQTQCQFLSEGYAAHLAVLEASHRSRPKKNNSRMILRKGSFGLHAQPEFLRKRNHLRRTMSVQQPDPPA
The test is described as follows: in vitro binding to immobilized GST-fusion protein.

For test [2], the target named is PYK2 (tyrosine protein kinase) (UniProt Q14289). The test is described as follows: coexpression in COS cells, anti-HA immunoprecipitation, immunoblot with anti-PYK2.
Test [3] has the same target. The test is described as follows: coexpression in COS cells, interaction analyzed.
The target is the same in test [4]. The test is described as follows: pull-down of PYK2 out of a cell lysate with GST-fused rdgB protein.

No constants are given. Whether binding was seen depends on the method and setting. For some assays here: In cells and extracts the contact can be indirect. Some entries that bind do so weakly or less than the wild type. Tags and fused reporters may be left off the sequences shown.

Consider “PYK2 (tyrosine protein kinase) (from UniProt Q14289 1-1009) (enzyme)”, for which, in test [1], the binding entry is recorded as “binds”.

B1: hrdgB2-HA (full length hrdgB2 with C-terminal HA-epitope tag) (protein)
chain: MLIKEYHILLPMSLDEYQVAQLYMIQKKSREESSGEGSGVEILANRPYTDGPGGSGQYTHKVYHVGSHIPGWFRALLPKAALQVEEESWNAYPYTRTRYTCPFVEKFSIEIETYYLPDGGQQPNVFNLSGAERRQRILDTIDIVRDAVAPGEYKAEEDPRLYHSVKTGRGPLSDDWARTAAQTGPLMCAYKLCKVEFRYWGMQAKIEQFIHDVGLRRVMLRAHRQAWCWQDEWTELSMADIRALEEETARMLAQRMAKCNTGSEGSEAQPPGKPSTEARSAASNTGTPDGPEAPPGPDASPDASFGKQWSSSSRSSYSSQHGGAVSPQSLSEWRMQNIARDSENSSEEEFFDAHEGFSDSEEVFPKEMTKWNSNDFIDAFASPVEAEGTPEPGAEAAKGIEDGAQAPRDSEGLDGAGELGAEACAVHALFLILHSGNILDSGPGDANSKQADVQTLSSAFEAVTRIHFPEALGHVALRLVPCPPICAAAYALVSNLSPYSHDGDSLSRSQDHIPLAALPLLATSSSRYQGAVATVIARTNQAYSAFLRSPEGAGFCGQVALIGDGVGGILGFDALCHSANAGTGSRGSSRRGSMNNELLSPEFGPVRDPLADGVEGLGRGSPEPSALPPQRIPSDMASPEPEGSQNSLQAAPATTSSWEPRRASTAFCPPAASSEAPDGPSSTARLDFKVSGFFLFGSPLGLVLALRKTVMPALEAAQMRPACEQIYNLFHAADPCASRLEPLLAPKFQAIAPLTVPRYQKFPLGDGSSLLLADTLQTHSSLFLEELEMLVPSTPTSTSGAFWKGSELATDPPAQPAAPSTTSEVVKILERWWGTKRIDYSLYCPEALTAFPTVTLPHLFHASYWESADVVAFILRQVIEKERPQLAECEEPSIYSPAFPREKWQRKRTQVKIRNVTSNHRASDTVVCEGPPQVLSGRFMYGPLDVVTLTGEKVDVYIMTQPLSGKWIHFGTEVTNSSGRLTFPVPPERALGIGVYPVRMVVRGDHTYAECCLTVVARGTEAVVFSIDGSFTASVSIMGSDPKVRAGAVDVVRHWQDSGYLIVYVTGRPDMQKHRVVAWLSQHNFPHGVVSFCDGLTHDPLRQKAMFLQSLVQEVELNIVAGYGSPKDVAVYAALGLSPSQTYIVGRAVRKLQAQCQFLSDGYVAHLGQLEAGSHSHASSGPPRAALGKSSYGVAAPVDFLRKQSQLLRSRGPSQAEREGPGTPPTTLARGKARSISLKLDSEEYPYDVPDYAS
B1: the binding result in test [2] is listed as “binds”.

B2: hrdgB3-HA (full length hrdgB3 with C-terminal HA-epitope tag) (protein)
chain: MIIKEYRIPLPMTVEEYRIAQLYMIQKKSRNETYGEGSGVEILENRPYTDGPGGSGQYTHKVYHVGMHIPSWFRSILPKAALRVVEESWNAYPYTRTRFTCPFVEKFSIDIETFYKTDAGENPDVFNLSPVEKNQLTIDFIDIVKDPVPHNEYKTEEDPKLFQSTKTQRGPLSENWIEEYKKQVFPIMCAYKLCKVEFRYWGMQSKIERFIHDTGLRRVMVRAHRQAWCWQDEWYGLSMENIRELEKEAQLMLSRKMAQFNEDGEEATELVKHEAVSDQTSGEPPEPSSSNGEPLVGRGLKKQWSTSSKSSRSSKRGASPSRHSISEWRMQSIARDSDESSDDEFFDAHEDLSDTEEMFPKDITKWSSNDLMDKIESPEPEDTQDGLYRQGAPEFRVASSVEQLNIIEDEVSQPLAAPPSKIHVLLLVLHGGTILDTGAGDPSSKKGDANTIANVFDTVMRVHYPSALGRLAIRLVPCPPVCSDAFALVSNLSPYSHDEGCLSSSQDHIPLAALPLLATSSPQYQEAVATVIQRANLAYGDFIKSQEGMTFNGQVCLIGDCVGGILAFDALCYSNQPVSESQSSSRRGSVVSMQDNDLLSPGILMNAAHCCGGGGGGGGGGGSSGGGGSSGGSSLESSRHLSRSNVDIPRSNGTEDPKRQLPRKRSDSSTYELDTIQQHQAFLSSLHASVLRTEPCSRHSSSSTMLDGTGALGRFDFEITDLFLFGCPLGLVLALRKTVIPALDVFQLRPACQQVYNLFHPADPSASRLEPLLERRFHALPPFSVPRYQRYPLGDGCSTLLADVLQTHNAAFQEHGAPSSPGTAPASRGFRRASEISIASQVSGMAESYTASSIAQKAPDALSHTPSVRRLSLLALPAPSPTTPGPHPPARKASPGLERAPGLPELDIGEVAAKWWGQKRIDYALYCPDALTAFPTVALPHLFHASYWESTDVVSFLLRQVMRHDNSSILELDGKEVSVFTPSKPREKWQRKRTHVKLRNVTANHRINDALANEDGPQVLTGRFMYGPLDMVTLTGEKVDVHIMTQPPSGEWLYLDTLVTNNSGRVSYTIPESHRLGVGVYPIKMVVRGDHTFADSYITVLPKGTEFVVFSIDGSFAASVSIMGSDPKVRAGAVDVVRHWQDLGYLIIYVTGRPDMQKQRVVAWLAQHNFPHGVVSFCDGLVHDPLRHKANFLKLLISELHLRVHAAYGSTKDVAVYSAISLSPMQIYIVGRPTKKLQQQCQFITDGYAAHLAQLKYSHRARPARNTATRMALRKGSFGLPGQGDFLRSRNHLLRTISAQPSGPSHRHERTQSQADGEQRGQRSMSVAAGCWGRAMTGRLEPGAAAGPKYPYDVPDYAS
Turning to B2, in test [2], the binding result is given as “binds”.

B3: myc-tagged version of the hrdgB2 'PYK2-binding domain' (residues 911-1243) (protein)
chain: MEQKLISEEDLVKIRNVTSNHRASDTVVCEGPPQVLSGRFMYGPLDVVTLTGEKVDVYIMTQPLSGKWIHFGTEVTNSSGRLTFPVPPERALGIGVYPVRMVVRGDHTYAECCLTVVARGTEAVVFSIDGSFTASVSIMGSDPKVRAGAVDVVRHWQDSGYLIVYVTGRPDMQKHRVVAWLSQHNFPHGVVSFCDGLTHDPLRQKAMFLQSLVQEVELNIVAGYGSPKDVAVYAALGLSPSQTYIVGRAVRKLQAQCQFLSDGYVAHLGQLEAGSHSHASSGPPRAALGKSSYGVAAPVDFLRKQSQLLRSRGPSQAEREGPGTPPTTLARGKARSISLKLDSE
Regarding B3, the binding entry in test [3] was “binds”.

B4: GST-fusion protein containing the same portion of hrdgB1 (amino acids 627-936) (protein, not shown: a dimerising Fc or GST)
chain: VKLRNVTANHRANDVIAAEDGPQVLVGRFMYGPLDMVALTGEKVDILVMAEPSSGRWVHLDTEITNSSGRITYNVPRPRRLGVGVYPVKMVVRGDQTCAMSYLTVLPRGMECVVFSIDGSFAASVSIMGSDPKVRPGAVDVVRHWQDLGYMILYITGRPDMQKQRVVSWLSQHNFPQGMIFFSDGLVHDPLRQKAIFLRNLMQECFIKISAAYGSTKDISVYSVLGLPASQIFIVGRPTKKYQTQCQFLSEGYAAHLAVLEASHRSRPKKNNSRMILRKGSFGLHAQPEFLRKRNHLRRTMSVQQPDPPA
Turning to B4, the binding result in test [4] was “binds”.
